Experimental data reported in article doi:10.1101/2025.10.30.684516.

Chains of the proteins cited; added tags and fusions are not shown.
UniProt P08670: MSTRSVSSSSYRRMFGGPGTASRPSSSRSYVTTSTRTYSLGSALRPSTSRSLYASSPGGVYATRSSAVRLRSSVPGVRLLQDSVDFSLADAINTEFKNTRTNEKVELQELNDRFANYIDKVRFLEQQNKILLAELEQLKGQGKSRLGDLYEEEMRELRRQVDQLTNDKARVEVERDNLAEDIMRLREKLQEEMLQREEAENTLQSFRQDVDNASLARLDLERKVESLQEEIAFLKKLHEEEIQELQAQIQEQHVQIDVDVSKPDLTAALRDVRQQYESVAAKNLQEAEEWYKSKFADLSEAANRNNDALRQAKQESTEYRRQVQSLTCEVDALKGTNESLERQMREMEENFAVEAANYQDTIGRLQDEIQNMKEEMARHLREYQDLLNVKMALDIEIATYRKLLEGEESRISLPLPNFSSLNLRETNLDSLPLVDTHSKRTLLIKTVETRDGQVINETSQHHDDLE

B1: AKR1C3 (protein, UniProt P42330 1-323)
chain: MDSKHQCVKLNDGHFMPVLGFGTYAPPEVPRSKALEVTKLAIEAGFRHIDSAHLYNNEEQVGLAIRSKIADGSVKREDIFYTSKLWSTFHRPELVRPALENSLKKAQLDYVDLYLIHSPMSLKPGEELSPTDENGKVIFDIVDLCTTWEAMEKCKDAGLAKSIGVSNFNRRQLEMILNKPGLKYKPVCNQVECHPYFNRSKLLDFCKSKDIVLVAYSALGSQRDKRWVDPNSPVLLEDPVLCALAKKHKRTPALIALRYQLQRGVVVLAKSYNEQRIRQNVQVFEFQLTAEDMKAIDGLDRNLHYFNSDSFASHPNYPYSDEY
B2: RBM3 (protein, UniProt P98179 1-157)
chain: MSSEEGKLFVGGLNFNTDEQALEDHFSSFGPISEVVVVKDRETQRSRGFGFITFTNPEHASVAMRAMNGESLDGRQIRVDHAGKSARGTRGGGFGAHGRGRSYSRGGGDQGYGSGRYYDSRPGGYGYGYGRSRDYNGRNQGGYDRYSGGNYRDNYDN
B3: RAB23 (protein, UniProt Q9ULC3 1-237)
chain: MLEEDMEVAIKMVVVGNGAVGKSSMIQRYCKGIFTKDYKKTIGVDFLERQIQVNDEDVRLMLWDTAGQEEFDAITKAYYRGAQACVLVFSTTDRESFEAVSSWREKVVAEVGDIPTVLVQNKIDLLDDSCIKNEEAEALAKRLKLRFYRTSVKEDLNVNEVFKYLAEKYLQKLKQQIAEDPELTHSSSNKIGVFNTSGGSHSGQNSGTLNGGDVINLRPNKQRTKKNRNPFSSCSIP
B4: RAB32 (protein, UniProt Q13637 1-225)
chain: MAGGGAGDPGLGAAAAPAPETREHLFKVLVIGELGVGKTSIIKRYVHQLFSQHYRATIGVDFALKVLNWDSRTLVRLQLWDIAGQERFGNMTRVYYKEAVGAFVVFDISRSSTFEAVLKWKSDLDSKVHLPNGSPIPAVLLANKCDQNKDSSQSPSQVDQFCKEHGFAGWFETSAKDNINIEEAARFLVEKILVNHQSFPNEENDVDKIKLDQETLRAENKSQCC
B5: EDIL3 (protein, UniProt O43854 24-480)
chain: DICDPNPCENGGICLPGLADGSFSCECPDGFTDPNCSSVVEVASDEEEPTSAGPCTPNPCHNGGTCEISEAYRGDTFIGYVCKCPRGFNGIHCQHNINECEVEPCKNGGICTDLVANYSCECPGEFMGRNCQYKCSGPLGIEGGIISNQQITASSTHRALFGLQKWYPYYARLNKKGLINAWTAAENDRWPWIQINLQRKMRVTGVITQGAKRIGSPEYIKSYKIAYSNDGKTWAMYKVKGTNEDMVFRGNIDNNTPYANSFTPPIKAQYVRLYPQVCRRHCTLRMELLGCELSGCSEPLGMKSGHIQDYQITASSIFRTLNMDMFTWEPRKARLDKQGKVNAWTSGHNDQSQWLQVDLLVPTKVTGIITQGAKDFGHVQFVGSYKLAYSNDGEHWTVYQDEKQRKDKVFQGNFDNDTHRKNVIDPPIYARHIRILPWSWYGRITLRSELLGCTEEE
B6: HCCS (protein, UniProt P53701 1-268)
chain: MGLSPSAPAVAVQASNASASPPSGCPMHEGKMKGCPVNTEPSGPTCEKKTYSVPAHQERAYEYVECPIRGTAAENKENLDPSNLMPPPNQTPAPDQPFALSTVREESSIPRADSEKKWVYPSEQMFWNAMLKKGWKWKDEDISQKDMYNIIRIHNQNNEQAWKEILKWEALHAAECPCGPSLIRFGGKAKEYSPRARIRSWMGYELPFDRHDWIINRCGTEVRYVIDYYDGGEVNKDYQFTILDVRPALDSLSAVWDRMKVAWWRWTS
B7: PRPS2 (protein, UniProt P11908 1-318)
chain: MPNIVLFSGSSHQDLSQRVADRLGLELGKVVTKKFSNQETSVEIGESVRGEDVYIIQSGCGEINDNLMELLIMINACKIASSSRVTAVIPCFPYARQDKKDKSRAPISAKLVANMLSVAGADHIITMDLHASQIQGFFDIPVDNLYAEPAVLQWIRENIAEWKNCIIVSPDAGGAKRVTSIADRLNVEFALIHKERKKANEVDRMVLVGDVKDRVAILVDDMADTCGTICHAADKLLSAGATKVYAILTHGIFSGPAISRINNAAFEAVVVTNTIPQEDKMKHCTKIQVIDISMILAEAIRRTHNGESVSYLFSHVPL
B8: TXNL1 (protein, UniProt O43396 1-289)
chain: MVGVKPVGSDPDFQPELSGAGSRLAVVKFTMRGCGPCLRIAPAFSSMSNKYPQAVFLEVDVHQCQGTAATNNISATPTFLFFRNKVRIDQYQGADAVGLEEKIKQHLENDPGSNEDTDIPKGYMDLMPFINKAGCECLNESDEHGFDNCLRKDTTFLESDCDEQLLITVAFNQPVKLYSMKFQGPDNGQGPKYVKIFINLPRSMDFEEAERSEPTQALELTEDDIKEDGIVPLRYVKFQNVNSVTIFVQSNQGEEETTRISYFTFIGTPVQATNMNDFKRVVGKKGESH
B9: AK1 (protein, UniProt P00568 1-194)
chain: MEEKLKKTKIIFVVGGPGSGKGTQCEKIVQKYGYTHLSTGDLLRSEVSSGSARGKKLSEIMEKGQLVPLETVLDMLRDAMVAKVNTSKGFLIDGYPREVQQGEEFERRIGQPTLLLYVDAGPETMTQRLLKRGETSGRVDDNEETIKKRLETYYKATEPVIAFYEKRGIVRKVNAEGSVDSVFSQVCTHLDALK
B10: EXOG (protein, UniProt Q9Y2C4 42-368)
chain: QGAEGALTGKQPDGSAEKAVLEQFGFPLTGTEARCYTNHALSYDQAKRVPRWVLEHISKSKIMGDADRKHCKFKPDPNIPPTFSAFNEDYVGSGWSRGHMAPAGNNKFSSKAMAETFYLSNIVPQDFDNNSGYWNRIEMYCRELTERFEDVWVVSGPLTLPQTRGDGKKIVSYQVIGEDNVAVPSHLYKVILARRSSVSTEPLALGAFVVPNEAIGFQPQLTEFQVSLQDLEKLSGLVFFPHLDRTSDIRNICSVDTCKLLDFQEFTLYLSTRKIEGARSVLRLEKIMENLKNAEIEPDDYFMSRYEKKLEELKAKEQSGTQIRKPS
B11: MYO1E (protein, UniProt Q12965 1-1108)
chain: MGSKGVYQYHWQSHNVKHSGVDDMVLLSKITENSIVENLKKRYMDDYIFTYIGSVLISVNPFKQMPYFGEKEIEMYQGAAQYENPPHIYALADNMYRNMIIDRENQCVIISGESGAGKTVAAKYIMSYISRVSGGGTKVQHVKDIILQSNPLLEAFGNAKTVRNNNSSRFGKYFEIQFSPGGEPDGGKISNFLLEKSRVVMRNPGERSFHIFYQLIEGASAEQKHSLGITSMDYYYYLSLSGSYKVDDIDDRREFQETLHAMNVIGIFAEEQTLVLQIVAGILHLGNISFKEVGNYAAVESEEFLAFPAYLLGINQDRLKEKLTSRQMDSKWGGKSESIHVTLNVEQACYTRDALAKALHARVFDFLVDSINKAMEKDHEEYNIGVLDIYGFEIFQKNGFEQFCINFVNEKLQQIFIELTLKAEQEEYVQEGIRWTPIEYFNNKIVCDLIENKVNPPGIMSILDDVCATMHAVGEGADQTLLQKLQMQIGSHEHFNSWNQGFIIHHYAGKVSYDMDGFCERNRDVLFMDLIELMQSSELPFIKSLFPENLQADKKGRPTTAGSKIKKQANDLVSTLMKCTPHYIRCIKPNETKKPRDWEESRVKHQVEYLGLKENIRVRRAGYAYRRIFQKFLQRYAILTKATWPSWQGEEKQGVLHLLQSVNMDSDQFQLGRSKVFIKAPESLFLLEEMRERKYDGYARVIQKSWRKFVARKKYVQMREEASDLLLNKKERRRNSINRNFIGDYIGMEEHPELQQFVGKREKIDFADTVTKYDRRFKGVKRDLLLTPKCLYLIGREKVKQGPDKGLVKEVLKRKIEIERILSVSLSTMQDDIFILHEQEYDSLLESVFKTEFLSLLAKRYEEKTQKQLPLKFSNTLELKLKKENWGPWSAGGSRQVQFHQGFGDLAVLKPSNKVLQVSIGPGLPKNSRPTRRNTTQNTGYSSGTQNANYPVRAAPPPPGYHQNGVIRNQYVPYPHAPGSQRSNQKSLYTSMARPPLPRQQSTSSDRVSQTPESLDFLKVPDQGAAGVRRQTTSRPPPAGGRPKPQPKPKPQVPQCKALYAYDAQDTDELSFNANDIIDIIKEDPSGWWTGRLRGKQGLFPNNYVTKI
B12: ATXN2L (protein, UniProt Q8WWM7 1-1075)
chain: MLKPQPLQQPSQPQQPPPTQQAVARRPPGGTSPPNGGLPGPLATSAAPPGPPAAASPCLGPVAAAGSGLRRGAEGILAPQPPPPQQHQERPGAAAIGSARGQSTGKGPPQSPVFEGVYNNSRMLHFLTAVVGSTCDVKVKNGTTYEGIFKTLSSKFELAVDAVHRKASEPAGGPRREDIVDTMVFKPSDVMLVHFRNVDFNYATKDKFTDSAIAMNSKVNGEHKEKVLQRWEGGDSNSDDYDLESDMSNGWDPNEMFKFNEENYGVKTTYDSSLSSYTVPLEKDNSEEFRQRELRAAQLAREIESSPQYRLRIAMENDDGRTEEEKHSAVQRQGSGRESPSLASREGKYIPLPQRVREGPRGGVRCSSSRGGRPGLSSLPPRGPHHLDNSSPGPGSEARGINGGPSRMSPKAQRPLRGAKTLSSPSNRPSGETSVPPPPAVGRMYPPRSPKSAAPAPISASCPEPPIGSAVPTSSASIPVTSSVSDPGVGSISPASPKISLAPTDVKELSTKEPGRTLEPQELARIAGKVPGLQNEQKRFQLEELRKFGAQFKLQPSSSPENSLDPFPPRILKEEPKGKEKEVDGLLTSEPMGSPVSSKTESVSDKEDKPPLAPSGGTEGPEQPPPPCPSQTGSPPVGLIKGEDKDEGPVAEQVKKSTLNPNAKEFNPTKPLLSVNKSTSTPTSPGPRTHSTPSIPVLTAGQSGLYSPQYISYIPQIHMGPAVQAPQMYPYPVSNSVPGQQGKYRGAKGSLPPQRSDQHQPASAPPMMQAAAAAGPPLVAATPYSSYIPYNPQQFPGQPAMMQPMAHYPSQPVFAPMLQSNPRMLTSGSHPQAIVSSSTPQYPSAEQPTPQALYATVHQSYPHHATQLHAHQPQPATTPTGSQPQSQHAAPSPVQHQAGQAPHLGSGQPQQNLYHPGALTGTPPSLPPGPSAQSPQSSFPQPAAVYAIHHQQLPHGFTNMAHVTQAHVQTGITAAPPPHPGAPHPPQVMLLHPPQSHGGPPQGAVPQSGVPALSASTPSPYPYIGHPQGEQPGQAPGFPGGADDRIREFSLAGGIWHGRAEGLQVGQDARVLGGE
B13: DAZAP1 (protein, UniProt Q96EP5 1-407)
chain: MNNSGADEIGKLFVGGLDWSTTQETLRSYFSQYGEVVDCVIMKDKTTNQSRGFGFVKFKDPNCVGTVLASRPHTLDGRNIDPKPCTPRGMQPERTRPKEGWQKGPRSDNSKSNKIFVGGIPHNCGETELREYFKKFGVVTEVVMIYDAEKQRPRGFGFITFEDEQSVDQAVNMHFHDIMGKKVEVKRAEPRDSKSQAPGQPGASQWGSRVVPNAANGWAGQPPPTWQQGYGPQGMWVPAGQAIGGYGPPPAGRGAPPPPPPFTSYIVSTPPGGFPPPQGFPQGYGAPPQFSFGYGPPPPPPDQFAPPGVPPPPATPGAAPLAFPPPPSQAAPDMSKPPTAQPDFPYGQYAGYGQDLSGFGQGFSDPSQQPPSYGGPSVPGSGGPPAGGSGFGRGQNHNVQGFHPYRR
B14: RAB9A (protein, UniProt P51151 1-201)
chain: MAGKSSLFKVILLGDGGVGKSSLMNRYVTNKFDTQLFHTIGVEFLNKDLEVDGHFVTMQIWDTAGQERFRSLRTPFYRGSDCCLLTFSVDDSQSFQNLSNWKKEFIYYADVKEPESFPFVILGNKIDISERQVSTEEAQAWCRDNGDYPYFETSAKDATNVAAAFEEAVRRVLATEDRSDHLIQTDTVNLHRKPKPSSSCC

These binders were tested against VIM-APEX2-GFP (UniProt P08670) (assay: proximity labelling).

binding, binds:
B1, B2, B3, B4, B5, B6, B7, B8, B9, B10, B11, B12, B13, B14

Results are given in words; binding and its absence hold for the method and conditions named. In cells and extracts the contact can be indirect. Here binding means that the protein was enriched with, or labelled near, the bait; the list need not be complete.
